According to PubChem BioAssay AID1671190 (National Center for Advancing Translational Sciences (NCATS), 2021):
Where “and” joins values, the source holds several entries; their conditions need not be identical. Equal values may be shown once. Hit rate of the full screen: of about 580,000 compounds, about 6,100 (1.1%) were called active. This list was built around the results that the source calls inconclusive (neither active nor inactive); the mix of calls is not that of the screen. The call rests on the fitted dose curve; in most records, active means well fitted inhibition curve with a large enough effect; inconclusive means small, poorly fitted or top-dose-only effect, or another doubt; inactive means no such curve, though single readings can be large or run the other way. Potencies of inconclusive entries are doubtful fits and often do not repeat.

Amino acid sequences for entries named in this document (tags omitted). A change or cut given only in a name is not applied to a line headed by its entry.
UniProt P18054: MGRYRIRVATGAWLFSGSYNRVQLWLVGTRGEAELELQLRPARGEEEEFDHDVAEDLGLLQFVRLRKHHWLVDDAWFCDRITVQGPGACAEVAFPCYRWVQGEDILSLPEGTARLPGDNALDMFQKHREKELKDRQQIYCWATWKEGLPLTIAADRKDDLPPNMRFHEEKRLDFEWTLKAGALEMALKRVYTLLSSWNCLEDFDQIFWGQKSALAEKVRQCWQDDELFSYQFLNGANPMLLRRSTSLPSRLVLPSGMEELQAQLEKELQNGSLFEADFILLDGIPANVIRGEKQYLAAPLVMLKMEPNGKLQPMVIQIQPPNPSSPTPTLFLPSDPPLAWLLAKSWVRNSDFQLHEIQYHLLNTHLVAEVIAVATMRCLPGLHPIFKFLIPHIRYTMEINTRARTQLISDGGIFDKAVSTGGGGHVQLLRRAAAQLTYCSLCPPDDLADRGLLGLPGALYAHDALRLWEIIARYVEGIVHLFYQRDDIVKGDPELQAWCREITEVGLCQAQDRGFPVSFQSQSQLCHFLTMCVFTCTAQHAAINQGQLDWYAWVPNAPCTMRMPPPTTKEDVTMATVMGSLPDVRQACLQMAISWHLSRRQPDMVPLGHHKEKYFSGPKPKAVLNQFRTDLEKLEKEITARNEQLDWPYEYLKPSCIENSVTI

Molecular target: Polyunsaturated fatty acid lipoxygenase ALOX12 (Homo sapiens) (UniProt P18054)
Experiment: Primary qHTS assay for inhibitors of human arachidonate 12S-lipoxygenase (ALOX12): Round 2
Details: purified 12hLO, xylenol orange hydroperoxide absorbance; activity change, negative = inhibition: at 108 µM (top of the series) unless noted
In short: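 Purified human 12hLO (150 nM final) in 25 mM Hepes, 0.01% Triton X-100, pH 7.0 was preincubated 15 min at room temperature with compound. Then 40 uM arachidonic acid was added, 30 min. Hydroperoxide was read by Fe-XO absorbance ratio 573/405 nm.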
On the % scale 0 is the no-effect control and ±100 the full control effect; potency means the concentration at half of the fitted maximal effect.

Compound	activity change, negative = inhibition	Potency
Cc1onc(-c2c(F)cccc2Cl)c1C(=O)c1ccccc1	inactive: 170%	
Cc1ccc(S(=O)(=O)N2CCCCC2C(=O)Nc2nncs2)cc1 (stereo not drawn)	inactive: -0.413%	
O=c1cc(NC2CCCCC2)[nH]c(=O)[nH]1		inconclusive: 70.8 µM [inhibitor, single point]
COc1ccc(C(C)NC(=O)Cc2ccsc2)cc1F (stereo not drawn)		inconclusive: 39.8 µM [inhibitor, partial curve, poor fit]
NCC(=O)N1CCC2(CC1)CN(C(=O)Cc1ccc(Cl)cc1)CCO2	inactive: 1.46% [at 6.33 µM]	
Cn1c(O)c(C2=c3ccccc3=NC2=O)sc1=Nc1ccc(Cl)cc1		inconclusive: 50.1 µM [inhibitor, partial curve, poor fit]
CCOc1ccc(CN(C)CC(=O)NCc2ccccc2)cc1	inactive: -2.02%	
Cc1cccc(-c2noc(CCCC(=O)Nc3ccc(C(N)=O)cc3)n2)c1	inactive: -29.2%	
CC[N+](CC)(CC)CCCCOc1ccc2c(c1)C(=O)c1cc(OCCCC[N+](CC)(CC)CC)ccc1-2		inconclusive: 39.8 µM [inhibitor, partial curve, poor fit]
CC(=O)c1ccccc1NC(C(=O)Nc1ccc2c(c1)OCCO2)c1cccs1 (stereo not drawn)	inactive: -0.786%	
COc1ccc2[nH]c(C)c(CCNC(=S)Nc3ccc(C)cc3)c2c1		inconclusive: 50.1 µM [inhibitor, partial curve, poor fit]
COC[C@H]1CCCN1[C@@H]1[C@H](O)[C@H](CO)O[C@@H]1CNC(=O)C1CCCC1		inconclusive: 17.8 µM [inhibitor, full curve]
NS(=O)(=O)c1cccc(NC(=S)NC(=O)C23CC4CC(CC(C4)C2)C3)c1		active: 31.6 µM
CC1Cc2cc(S(N)(=O)=O)ccc2N1CC(=O)Nc1ccc(Cl)cc1F (stereo not drawn)		inconclusive: 56.2 µM [inhibitor, partial curve, poor fit]
Cn1nc2n(c1=O)CCN(S(C)(=O)=O)CC2	inactive: 7.41%	
COc1ccc(N2CCN(Cc3nc4c(c(=O)[nH]c(=O)n4C)n3Cc3ccc(C)cc3)CC2)cc1		inconclusive: 56.2 µM [inhibitor, partial curve, poor fit]
CCc1ccc2nc(NC(=O)Cn3cnc4ccccc4c3=O)sc2c1	inactive: -2.8%	
O=C(O)c1cc2c(cn1)[nH]c1ccccc12	inactive: -0.798%	
CN(Cc1ccc(Cl)cc1)C(C(=O)NC1CCCCC1)c1cc2ccccc2o1 (stereo not drawn)		inconclusive: 0.224 µM [inhibitor, full curve, poor fit]
N#Cc1ccc(C(=O)NC2CCN(c3cc(-c4ccc(Cl)cc4)[nH]n3)C2)cc1 (stereo not drawn)		inconclusive: 12.6 µM [inhibitor, full curve]
COc1ccc(C)cc1N(C(=O)c1ccco1)C(C(=O)NC1CCCC1)c1ccc(N2CCOCC2)cc1 (stereo not drawn)	inactive: -2.3%	
CC1CCN([C@@H]2[C@H](O)[C@H](CO)O[C@@H]2CNC(=O)Nc2ccccc2)CC1		inconclusive: 31.6 µM [inhibitor, full curve]

Compound	activity change, negative = inhibition	Potency
Brc1cccc(CNc2nc3ccccc3n2CCN2CCCCC2)c1		inconclusive: 56.2 µM [inhibitor, partial curve, poor fit]
Cn1c(-n2cccc2)c(-c2c(-c3ccc(F)cc3)[nH]c3c2c(=O)n(C)c(=O)n3C)c(=O)n(C)c1=O	inactive: -12.5%	
CNC(=O)[C@@H]1C[C@@H](N)CN1S(=O)(=O)c1ccc2c(c1)OCCCO2	inactive: 20.1%	
COc1ccc(C(=O)N[C@H]2C[C@H]3C(=O)Nc4cc(Cl)ccc4C(=O)N3C2)cc1	inactive: -8.01% [at 176 µM]	
O=C(Cc1c(F)cccc1Cl)Nc1cc(S(=O)(=O)N2CCCCC2)ccc1N1CCOCC1	inactive: 0%	
CCOC(=O)c1c(NC(=O)COC(=O)CCOc2ccccc2C)sc(C(=O)NC)c1C	inactive: -1.1%	
COc1cc(C(=O)Nc2nnc(C3CC3)s2)ccc1OCc1c(C)noc1C		inconclusive: 89.1 µM [inhibitor, single point]
CCc1ccc(OCCNC(=O)c2cc(SC)ccc2Cl)cc1		inconclusive: 126 µM [inhibitor, single point]
c1ccc(Cn2ncc3c2CCCC3NCc2ccsc2)cc1 (stereo not drawn)		inconclusive: 3.55 µM [inhibitor, full curve, poor fit]
CCn1nc(C(=O)Nc2ccc(C)c(S(=O)(=O)N3CCOCC3)c2)c2ccccc2c1=O		inconclusive: 141 µM [inhibitor, single point]
Cc1ccc(NC(=S)NN2CCOCC2)c(C)c1	inconclusive: -70.7% [inhibitor]	
O=C(c1nc(-c2ccc(Cl)cc2Cl)c2ccccn12)N1CCCC1		inconclusive: 44.7 µM [inhibitor, partial curve]
O=C(CSc1nnnn1C1CC1)N1CCN(c2ccc(O)cc2)CC1		inconclusive: 70.8 µM [inhibitor, partial curve, poor fit]
O=C(COC(=O)CN1C(=O)COc2ccccc21)NCc1ccc(F)cc1		inconclusive: 20 µM [inhibitor, partial curve, poor fit]
CCOc1ccccc1CNC(=O)C1CCN(S(=O)(=O)c2c(C)noc2/C=C/c2ccccc2F)CC1		inconclusive: 158 µM [inhibitor, partial curve, poor fit]
CC1=C(c2ccc(C(C)C)cc2)S(=O)(=O)N=C1N1CCC(C(=O)NCc2ccccc2)CC1	inconclusive: -39.5% [inhibitor]	
COC(=O)c1cc(-c2ccc(C)o2)nc2ccccc12		active: 25.1 µM and active: 6.31 µM
O=C(C1=C(O)C(=O)N(CCc2ccccc2)C1c1ccc(Br)cc1)c1cccs1 (stereo not drawn)		inconclusive: 112 µM [inhibitor, partial curve, poor fit]
O=C(Nc1ccc(F)c(Cl)c1)N1CCC(Oc2ncccc2C(=O)N2CCCCC2)C1 (stereo not drawn)	inactive: 34.5%	
CCOC(=O)c1nc(Nc2ccc(C(=O)O)cc2)c2ccccc2n1		inconclusive: 17.8 µM [inhibitor, full curve, poor fit]
COc1ccc(-n2ccnc(NCc3cccs3)c2=O)cc1OC		inconclusive: 44.7 µM [inhibitor, partial curve, poor fit]

Grouped by structure: the entries above with an NH in an aromatic ring.
Compound	activity change, negative = inhibition	Potency
O=c1cc(NC2CCCCC2)[nH]c(=O)[nH]1		inconclusive: 70.8 µM [inhibitor, single point]
COc1ccc2[nH]c(C)c(CCNC(=S)Nc3ccc(C)cc3)c2c1		inconclusive: 50.1 µM [inhibitor, partial curve, poor fit]
COc1ccc(N2CCN(Cc3nc4c(c(=O)[nH]c(=O)n4C)n3Cc3ccc(C)cc3)CC2)cc1		inconclusive: 56.2 µM [inhibitor, partial curve, poor fit]
O=C(O)c1cc2c(cn1)[nH]c1ccccc12	inactive: -0.798%	
N#Cc1ccc(C(=O)NC2CCN(c3cc(-c4ccc(Cl)cc4)[nH]n3)C2)cc1 (stereo not drawn)		inconclusive: 12.6 µM [inhibitor, full curve]
Cn1c(-n2cccc2)c(-c2c(-c3ccc(F)cc3)[nH]c3c2c(=O)n(C)c(=O)n3C)c(=O)n(C)c1=O	inactive: -12.5%	
